The source of these data is publication PMC9026565.

Chains of the proteins cited; added tags and fusions are not shown.
UniProt P55087: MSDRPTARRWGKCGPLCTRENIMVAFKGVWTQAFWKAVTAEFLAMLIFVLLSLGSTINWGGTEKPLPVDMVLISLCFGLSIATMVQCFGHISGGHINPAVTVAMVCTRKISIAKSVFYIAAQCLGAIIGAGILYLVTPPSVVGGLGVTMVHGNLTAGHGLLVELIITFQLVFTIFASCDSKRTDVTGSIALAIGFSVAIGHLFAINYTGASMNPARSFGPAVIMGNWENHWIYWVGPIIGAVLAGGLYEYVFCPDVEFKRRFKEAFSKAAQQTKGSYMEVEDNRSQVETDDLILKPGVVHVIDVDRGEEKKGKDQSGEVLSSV

Results are given in words; binding and its absence hold for the method and conditions named. Some binding calls cover weakened binding; strength is not graded here.

The target in test [1] is human aquaporin 4 (human) (UniProt P55087). Description: SDS-PAGE (SDS-resistant oligomer ladder); NuPAGE 4-12% Bis-Tris gel of the main SEC elution peak of purified AQP4; samples not boiled; both purified.
For test [2] the target is unchanged. Description: SEC; Superdex 200 Increase 10/300 GL, flow 0.4 mL/min, SEC-buffer (20 mM Tris pH 8.0, 300 mM NaCl, 1% OG), 4°C; 500 μL of 10 mg/mL IMAC sample; tetramer assigned from the elution volume; both purified.

On to “human aquaporin 4 (from UniProt P55087 1-323)”, for which the binding result in test [1] and in test [2] was “binds” throughout.
